# Measurements as given in paper PMC8880450.
# Chains of the proteins cited; added tags and fusions are not shown.
# UniProt P03466: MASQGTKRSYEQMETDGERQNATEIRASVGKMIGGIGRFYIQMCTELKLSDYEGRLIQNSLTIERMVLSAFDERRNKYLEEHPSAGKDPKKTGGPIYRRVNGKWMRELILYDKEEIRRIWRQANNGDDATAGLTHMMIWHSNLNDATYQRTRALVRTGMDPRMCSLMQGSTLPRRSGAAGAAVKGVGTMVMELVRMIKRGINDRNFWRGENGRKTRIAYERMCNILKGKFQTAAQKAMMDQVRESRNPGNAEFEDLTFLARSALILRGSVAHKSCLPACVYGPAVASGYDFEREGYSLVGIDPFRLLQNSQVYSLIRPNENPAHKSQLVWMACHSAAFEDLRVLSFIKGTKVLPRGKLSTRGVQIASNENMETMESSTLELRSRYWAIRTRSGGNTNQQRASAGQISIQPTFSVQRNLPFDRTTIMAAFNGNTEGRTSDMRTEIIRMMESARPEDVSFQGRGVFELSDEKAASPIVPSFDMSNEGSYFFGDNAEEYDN
# Molecular target: Nucleoprotein (NP) of influenza A virus A/Puerto Rico/8/34 (PR8) H1N1, made in infected cells (Influenza A virus A/Puerto Rico/8/34 (H1N1)) (UniProt P03466)
# Experiment: affinity purification with mass spectrometry
substance,measurement,value
"Heterogeneous ribonucleoprotein A1 (hnRNPA1), endogenous in A549 cells (from UniProt P09651-1 1-372)",binding,binds

# No constants are given. Whether binding was seen depends on the method and setting. Binding seen in cells or lysates may run through a third protein. Here binding means that the protein was enriched with, or labelled near, the bait; the list need not be complete.
